Measurements published in the supplement of paper PMC12889115.
The list shows a part of the results. These are raw signals, not scaled to a control.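 First-pass screen: polymyxin B was added at a level that permeabilizes the Salmonella outer membrane while sparing the inner membrane. DMSO wells, with and without polymyxin B, defined maximum growth. Because plates differed from one another, each plate's data were ranked separately and the compounds with the lowest OD600 were carried forward as hits.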

Tested on: Salmonella enterica serovar Typhimurium SL1344
Assay: bacterial growth OD600 after 18 h with compound and polymyxin B; higher = more bacterial growth (less inhibition)
Conditions: 50 µM, Mueller-Hinton broth

Compound	bacterial growth OD600 (polymyxin B 1 µg/mL)	bacterial growth OD600 (polymyxin B 0.75 µg/mL)
O=C(Cn1cncn1)N1CCC2(CCCN(Cc3ccccc3F)C2)C1 (stereo not given)	0.887	
CCC(C)CC(=O)NCC1Cc2cc(C)cc(-c3ccc(OC)nn3)c2O1 (stereo not given)		0.839
Cn1cc(CN2CCCC2C(=O)Nc2ccc(-c3cccc(F)c3)cc2)cn1 (stereo not given)	0.894	
COc1cc(CC2(CCC(=O)NC(C)C34CC5CC(CC(O)(C5)C3)C4)CCC(=O)N2)ccc1F (stereo not given)		0.826
CCCn1cc(CN2CCC(CO)(Cc3ccccc3Cl)CC2)c(C)n1	0.906	
CN(CC1CCCCO1)C(=O)CC1(c2ccccc2)CC(=O)N(CCCOc2cccnc2)C1=O (stereo not given)		0.855
Cc1ncc2c(c1CNC(=O)Cc1ccsc1)CCN(C(=O)C(c1ccccc1)c1ccccc1)C2		0.717
COCCNC(=O)c1ccc(OC2CCN(Cc3ccccn3)CC2)c(Cl)c1	0.876	
CCOC(=O)N1CCC(NC(=O)C2CC23CCN(C(=O)/C=C/c2ccc(F)cc2F)CC3)CC1 (stereo not given)		0.756
COC(=O)CN(C)C(=O)C1CCC(=O)N(CCc2ccc(OC)cc2)C1 (stereo not given)	0.888	
O=C1CCCN1CC1CCN(Cc2nc(-c3cccc(Cl)c3)no2)CC1	0.764	
Cc1cnccc1CNC(=O)CC(c1ccccc1)c1ccc2c(c1)OCO2 (stereo not given)	0.795	
CCNC(=O)N1CCCC(CCc2ccccc2)C1 (stereo not given)		0.533
CN(Cc1ccc(F)cc1)Cc1nc(Cc2ccccc2Cl)no1	0.783	
CCN(CC)c1ncccc1CNC(=O)Cn1nc2ccccc2n1	1	
c1ccc(Oc2ncccc2CNCc2cccn2-c2ncccn2)cc1		0.864
O=C(Nc1cnn(-c2ccc(C(=O)N3CCOc4ccccc4C3)cc2)c1)C1CCOCC1		0.82
COc1cccc(N2C[C@@H]3C[C@@H](c4cccc(OC)c4OC)N4CCC[C@@]34C2=O)c1		0.913
COc1cc(CN2CCOc3ccc(CN4CCc5sccc5C4)cc3C2)cc2c1OCO2		0.002
COc1cccc(CC2(CO)CCN(Cc3cc(F)ccc3-n3nc(C)cc3C)CC2)c1	0.873	

A draw from above in order of formula weight, low to high:
Compound	bacterial growth OD600 (polymyxin B 1 µg/mL)	bacterial growth OD600 (polymyxin B 0.75 µg/mL)
CCNC(=O)N1CCCC(CCc2ccccc2)C1 (stereo not given)		0.533
CCN(CC)c1ncccc1CNC(=O)Cn1nc2ccccc2n1	1	
COCCNC(=O)c1ccc(OC2CCN(Cc3ccccn3)CC2)c(Cl)c1	0.876	
